PubChem BioAssay AID504744, Drosophila RNAi Screening Center – 2011
Purpose: 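Identify dsRNAs that increase or decrease phospho-dAkt after insulin treatment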 (primary screen). System: Drosophila Kc167 cells. Reagents: long dsRNA against Drosophila genes, 250 ng dsRNA per well of a 384-well plate. Time to read-out: 3 days of knock-down, then overnight serum-free starvation before stimulation. Challenge: bovine insulin at 387 nM for 10 minutes after 12 h without serum. Detection: 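In-cell antibody fluorescence for phospho-dAkt in each well over DNA-dye signal, with log2 residuals expressed as z-scores adjusted for cell count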. Rule for the call: 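Under insulin, a gene counts as a hit if the average z-score of two replicates lies above 2.5 or below -2.5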.
The screen tested about 23,000 reagents; this is an unselected part of those that have a named target and a result. In the full data, 98 (0.43%) are marked active. 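Only hit calls are given; the phospho-dAkt signals, z-scores and hit direction were not deposited.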 Names joined by + are all predicted targets of the reagent. Reagent sequences are not shown.

no.	target	DRSC id	Call
1	brun (brunelleschi)	DRSC02706	inactive
2	mRpS18C (mitochondrial ribosomal protein S18C)	DRSC16538	inactive
3	wtrw (water witch)	DRSC14241	inactive
4	wtrw (water witch)	DRSC15278	inactive
5	CG15059	DRSC19633	inactive
6	nan (nanchung)	DRSC10551	inactive
7	Tes (Testin)	DRSC06996	inactive
8	ATPsynC (ATP synthase, subunit C)	DRSC15236	inactive
9	CG34289	DRSC13625	inactive
10	Bap60 (Brahma associated protein 60kD)	DRSC19337	inactive
11	Ork1 (Open rectifier K[+] channel 1)	DRSC20266	inactive
12	Dsp1 (Dorsal switch protein 1)	DRSC20315	inactive
13	CG3253	DRSC04350	inactive
14	CG34124	DRSC00849	inactive
15	CG1074	DRSC12143	inactive
16	GluClalpha (Glutamate-gated chloride channel subunit alpha)	DRSC16680	inactive
17	CG11294	DRSC17777	inactive
18	CG13884	DRSC08354	inactive
19	Tm2 (Tropomyosin 2)	DRSC16887	inactive
20	grnd (grindelwald)	DRSC02020	inactive
21	CG3603	DRSC18317	inactive
22	blw (bellwether)	DRSC04675	inactive
23	CG12496	DRSC18602	inactive
24	CG8841	DRSC07286	inactive
25	ms(3)76Ba (male sterile (3) 76Ba)	DRSC10091	inactive
26	CG9222	DRSC03158	inactive
27	CR18275 + CG13373	DRSC17900	inactive
28	Anp (Andropin)	DRSC14112	inactive
29	CG14693	DRSC14916	inactive
30	qm (quemao)	DRSC11386	inactive
31	CG12862	DRSC06202	inactive
32	tbrd-2	DRSC07020	inactive
33	CG9213	DRSC20170	inactive
34	Baldspot	DRSC09671	inactive
35	SIFa (SIFamide)	DRSC04480	inactive
36	CG11986	DRSC14461	inactive
37	CG5217	DRSC15740	inactive
38	CG30389	DRSC04077	inactive
39	CG30389	DRSC04452	inactive
40	Idh3a (Isocitrate dehydrogenase 3a)	DRSC19446	inactive
41	CG9294	DRSC04537	active
42	CG12713	DRSC09900	inactive
43	CG34296	DRSC13961	inactive
44	CG9928	DRSC03274	inactive
45	en (engrailed)	DRSC07609	inactive
46	Cth (Cystathionine gamma-lyase)	DRSC07422	inactive
47	pds5	DRSC06670	inactive
48	CG18746	DRSC15383	inactive
49	Obp83cd (Odorant-binding protein 83cd)	DRSC12267	inactive
50	CG32806	DRSC21699	inactive
51	Svip (small VCP interacting protein)	DRSC08982	inactive
52	CG31549	DRSC21688	inactive
53	AOX3 (Aldehyde oxidase 3)	DRSC15955	inactive
54	CG3285	DRSC00589	inactive
55	CG13426	DRSC06388	inactive
56	CG5569	DRSC04514	active
57	CG17780 + CG17781	DRSC15266	inactive
58	CG15376 (retired record)	DRSC18046	inactive
59	CG1116	DRSC12166	inactive
60	Or59a (Odorant receptor 59a)	DRSC04631	inactive
61	CG8001	DRSC08611	inactive
62	Slob (Slowpoke binding protein)	DRSC02296	inactive
63	CG3107	DRSC04888	inactive
64	CG30031 + deltaTry + gammaTry	DRSC07622	inactive

Called active, among the entries above:
target	DRSC id	Call
CG9294	DRSC04537	active
CG5569	DRSC04514	active
